According to PMC10127613 (mBio, 2023):
Negatives hold for the conditions tested. Protein sequences can lack the tags named with them. Weaker means in comparison with the reference protein, sequence or condition of that experiment.

Target: T1, Clr (Sinorhizobium meliloti) (UniProt Q92SD2)
T1 sequence (looked up): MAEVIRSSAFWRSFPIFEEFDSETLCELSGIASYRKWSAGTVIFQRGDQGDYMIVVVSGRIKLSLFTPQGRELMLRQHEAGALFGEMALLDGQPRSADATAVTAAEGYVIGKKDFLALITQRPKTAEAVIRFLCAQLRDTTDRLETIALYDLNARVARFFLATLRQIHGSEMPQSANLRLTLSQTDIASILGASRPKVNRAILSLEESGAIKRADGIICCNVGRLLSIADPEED
Experiment: EMSA
Settings: 1 mM cAMP, EMSA: 2 mM HEPES pH 7.0, 30 mM NaCl, 50 mM KCl, 850 ng salmon sperm DNA, 1 ug BSA, 20 ng Cy3-DNA, 3 ug Clr in 10 uL, room temperature, recombinant protein, residues 1-234, protein details: C-terminal His6 (pET36b, NdeI/XhoI), label: 5'-Cy3 on reverse strand

Row | Sequence | binding result
1 | AGCGGATAACAATTTCACACAGGAAACAGCATATGACCATGATTACGCCAAGCTCGAAATTAACCCTCACTAAAGGGAACAAAAGCTGGAGCTCTTAAGCTTCTCAACAGGGCTGGACAGAAGCTGCAGTCGGCACGAATTCTCGCCGAAGCCGCTGGGAATGGCCATGCTCTGGCAATGGCCAGCTATGCCGATCTCCTTGCCGAGCGCGGCATGGCCGGTACGTCCTCCGGCGATTTGCTGACGGCCCGGCGCTTCGCGCAGGCGACCACGGACGGATTGCAGTGATGAGGGCGGCGGACCGGTCTTCCGCATAGGTCCGACCCGCCCGAAAATGCCGCTTGACGCCTGCGAGCAGGCGCAGGAGCGTGACCCGCGAGACATCAACGCGGGACGCACATGACGAAGCTCTCTAGACTGCAGATGGTGAGCAAGGGCGAGGAGCTGTTCA (double strand) [SMc02179] | binds more weakly
2 | AGCGGATAACAATTTCACACAGGAAACAGCATATGACCATGATTACGCCAAGCTCGAAATTAACCCTCACTAAAGGGAACAAAAGCTGGAGCTCTTAAGCTTCTGCCCGATTTTGGCCACAAGATACAATCGACAGTATTAATTGCGAAGGAACAATACATCCAATAATCTGGTTCTGATCTGTTTCTTCTATCGGTTATATTAACGATCTCTCTTTCACTCGACGATTGTGCACGTGATTTGCTACAAGCCTCGGACCGCTGCCGCATGTAGCAATGGCAACGCAAAACGGGTTAAAAGGGATCAAACGAGAGCTGACGAGACATGATGGAATCGGTGCAAACTGACGGGAAGAGGGGAGAAAACAGGTACTTCAAGGCGCCTGTCTTTGCCGTGGCGCCTATGATCGACTGGACCGATCGTTCTAGACTGCAGATGGTGAGCAAGGGCGAGGAGCTGTTCA (double strand) [SMc04235 / SMc04236] | binds more weakly
3 | AGCGGATAACAATTTCACACAGGAAACAGCATATGACCATGATTACGCCAAGCTCGAAATTAACCCTCACTAAAGGGAACAAAAGCTGGAGCTCTTAAGCTTCTGGACTGAAGTCAGTGCCATTCTCGATATCGTTGATTTCGACGACGGCGAGGCCGCAGGTGACCGCGAGATCCTCGATGCTGTAGCCGACCGCTTCACGCGCGGCCTTGACGCGAGCGGCGATGTCGCCGTTGGGCATCGGAGCGGCTTCCTTGTCGCCAATGTTGGAGGGTGAAATAGACATAAATGTCTCCTTCTCTTGGCATGAAAATTCTTACGAATTTTGCTGTTGAGTACGGGTCGACACGCGTCACTGCATGCCCCCTGAACCGCGATTCAAGGGAAAAAACATGCAGCAGATGAAAGTGCTGCAGCGACCTTTGTGCGCGTGAGACGCGCGGTGCTGCAGGACGGCGGTAACGTTTTATGTCATCGTTGTAACATGGACAAGCCGAAATCGCTCTTGTGCACCGGAAGCGGCAGTCGGCTACTGGAATGTCGGTTCTAGACTGCAGATGGTGAGCAAGGGCGAGGAGCTGTTCA (double strand) [exsI / SMb20936] | binds more weakly
4 | AGCGGATAACAATTTCACACAGGAAACAGCATATGACCATGATTACGCCAAGCTCGAAATTAACCCTCACTAAAGGGAACAAAAGCTGGAGCTCTTAAGCTTCTTCTGGGACGGCTTTTCGTAGAAGTCACGCATCTTCATTTCGCGGAAAATGCCTTCGCGCTGCATCTTTTTCTTAAGAGCGCGGAGCGCCTGATCGACATTGTTATCGCGGACAAGTACCTGCACGTGAATCCCGTTCCTTTGCTTCGAGTTGGTAAGCCTCACCATCAGGTTTGGAGAGGCAATAAATTTGCGTTCGCTGGGCGAGAACCCTACGATTAGAAGAGCGGATAACAGATCGCGTGCCGAAAGTCCAGCGGCGAGAGAGCGCGCGTGGGGAAAAAGCGCCGATGGCTCTGCGGCGGCGGCCGTCGATGTCGCAAGACCGCGCAAGTCCGCCGGATCGCGTCGCAAAAGAAACGTTGCGTGGTCCTCGGATTTGCGATTTCTAACGCCAACGAACGTTACCGGGTTCATGGAGTAGCAGGCGGATGCGCAAATATTCTGTTTTTGCCGTGGCGCGCTCTAGACTGCAGATGGTGAGCAAGGGCGAGGAGCTGTTCA (double strand) [rpsU2 / soxB2] | no binding
5 | AGCGGATAACAATTTCACACAGGAAACAGCATATGACCATGATTACGCCAAGCTCGAAATTAACCCTCACTAAAGGGAACAAAAGCTGGAGCTCTTAAGCTTGAAGCGATCGTCTTCACCGCTCGCGTCGTAGCGCCCGAAACGGTGAGCGCCTGAGGCGGGACCAAGCGCGGCTTTCGGCAAATCTGGCCGATTTCCATCGTCTCATTGCTCCGGTGACGGGAGGACTCATGCGCCCTCCCGTATGCTTCACGACCGCATCCCTCCGACCGACCGGAAGCGCCGGCGGTTTTCAGCGCGGCGGGTGATGCCGCGTCACCGCGGTAACTGTTTCTTTGCCAAATCCGTATAGGATTGCTTCATGGAGATGGTTTCGCGTGTGGCGGAGCGGGAAGGAGATGGACGTGCGGCGCTTGATGATTGCTGACGGATCTAGACTGCAGATGGTGAGCAAGGGCGAGGAGCTGTTCA (double strand) [SMc00653] | binds
6 | AGCGGATAACAATTTCACACAGGAAACAGCATATGACCATGATTACGCCAAGCTCGAAATTAACCCTCACTAAAGGGAACAAAAGCTGGAGCTCTTAAGCTTGAAGGCTGCAGCAAAGCCATCGGCGATTGTTGCAGAGAGATCGCGAGGTCCGAAGCCAGCCGCCGCTGGACGGCGGACCCCGCGAGTGGCCCCGGAGCGGCGTCCCAGTAGTCCCTTCGGGCAGCGCCGCTCTGGGGCTTCGCCGAACCGCTGGGTCGCGCCGGCAACTCGCCTGCCGTCACGGTATATTTCACTCAGGTAACGTAACGTTACTGTATCCGATTGATAGTCCTACAGTAAAAACAGGAACAAATCACGAAGTACATCGTTCTTCCATCGTATATCAAGGGAGTACGACAGATGAACGCCAAGCTAGACTGCAGATGGTGAGCAAGGGCGAGGAGCTGTTCA (double strand) [SMc00254] | no binding
7 | AGCGGATAACAATTTCACACAGGAAACAGCATATGACCATGATTACGCCAAGCTCGAAATTAACCCTCACTAAAGGGAACAAAAGCTGGAGCTCTTAAGCTTGACCAACCTTTTCCCAGAGGTAATAAGAACCTGCCGTGTTGGGATGGTACGGAAGTACATCGGTGCAGATGCTCTCCGTGCGTGGACTTGAGGACAGGCCAAAGACTTACAGCTCCGGCGCGAAACGTCGCGTCGACCGGGCGTGAGCACCCAGTGGTGCGCGGTTGCCTGGGCTGAGGCGACGCCAAGGTTGGTCCCTGTTACTTCCGGAACTGCCGCAGTGGCTTACTCCGGGTATTCAGTAACAACGGGATTGCGCGTGCGGGCGGAACGAGGACGGCGCGCGCGGGACGAGCCTTTGCTGCCACATCCCGAACAACGAGGCGGTGACTCTGTCGCAGCCGCCGCATTGGCGAGTGTCCACCGAAAGGCCGGCACTCAGACCAAGAGGGAAGCACCATGTCTAAGACGTCCTTCAACATCAATCCGTCGGCCATTCTGACCACGGCGCTAGGCACAGCCTTCTTGAGCTGCGCGGCACAGGTGGCCGGGGCAATCCACCGGCGCCGGCAAAGCGGTCGTGCACGCGGGTGCACTCTGCAGGAAATGCCGGATTACATCCTCAAGGACATCGGCGTGACGCGCTTCGAAATTGAATACCTCGTCAAATCTGGACGAGCCTGCAGATGGCGCCAGAGCGAGTGAAGCGGCCGAATGCCACCGTCTCTGTCAGATCGAACCATTGAGAATGACAATGAGAGTGACCATGAAAATGCACCTTCTCTCCAGCGCTCTAGACTGCAGATGGTGAGCAAGGGCGAGGAGCTGTTCA (double strand) [SMb20495] | binds
